# From PubChem BioAssay AID2551 (National Center for Advancing Translational Sciences (NCATS), 2010)
# Protein sequences, listed by entry. Tags and fused reporters are not part of them. Lines headed by an entry give the natural chain unless they say otherwise; changes in a name come on top.
# UniProt P51450: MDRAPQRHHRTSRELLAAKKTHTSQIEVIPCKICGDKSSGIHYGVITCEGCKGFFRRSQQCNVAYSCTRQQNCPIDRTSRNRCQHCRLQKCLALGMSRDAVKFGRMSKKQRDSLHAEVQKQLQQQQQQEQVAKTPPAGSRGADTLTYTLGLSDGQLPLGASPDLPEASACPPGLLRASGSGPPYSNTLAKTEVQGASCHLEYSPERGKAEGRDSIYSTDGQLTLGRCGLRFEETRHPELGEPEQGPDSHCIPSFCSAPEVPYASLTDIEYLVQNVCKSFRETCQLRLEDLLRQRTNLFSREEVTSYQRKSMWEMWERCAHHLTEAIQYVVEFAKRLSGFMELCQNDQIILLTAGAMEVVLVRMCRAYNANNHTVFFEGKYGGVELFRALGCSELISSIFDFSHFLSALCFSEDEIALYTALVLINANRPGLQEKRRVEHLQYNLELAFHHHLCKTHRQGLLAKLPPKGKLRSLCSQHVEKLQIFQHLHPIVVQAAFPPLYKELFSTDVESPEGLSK
# Screen size: about 310,000 compounds; about 17,000 (5.5%) were called active. Inconclusive means that the source gave no clear call. Such entries were picked first, then a sample of the others. The call rests on the fitted dose curve; in most records, active means well fitted inhibition curve with a large enough effect; inconclusive means small, poorly fitted or top-dose-only effect, or effect the other way; inactive means no such curve, though single readings can be large or run the other way. Potencies beside an inconclusive call are fits to weak or partial responses and may not hold up.
# Molecular target: Nuclear receptor ROR-gamma (Mus musculus) (UniProt P51450)
# Assay: qHTS for inhibitors of ROR gamma transcriptional activity; further: nearly all actives have a fitted effect of over 60% in size
# Conditions: Drosophila S2 Gal4-RORgamma UAS-luciferase reporter, 20 h; series mostly up to 53.6 µM
# How it was run: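 Read-out: Photinus luciferase luminescence; inhibitors lower reporter signal. Insect Schneider cells with Gal4-ROR gamma fusion under metallothionein promoter, UAS reporter; 700 uM final copper sulfate induction, 20 hr, ambient temperature.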
# Potency means the concentration at half of the fitted maximal effect.
row,SMILES,Potency
1,COc1ccc(NC(C)=O)cc1S(=O)(=O)Nc1ccccc1C(=O)NCCc1ccccc1,"inconclusive: 8.91 µM [inhibitor, partial curve]"
2,CNc1cc(C)nc(-n2nc(C)cc2C)n1,active: 0.631 µM
3,C/C(=N/Nc1nc(C)c(C)s1)c1cccc([N+](=O)[O-])c1,active: 11.2 µM
4,Cc1nc2ccc(Cl)cc2nc(C)/c1=N\O,"inconclusive: 0.794 µM [activator, full curve, poor fit]"
5,CC(=O)c1sc(NC(=O)C2=NN(c3ccccc3)C(=O)CC2)nc1C,"inconclusive: 31.6 µM [inhibitor, single point]"
6,Cc1cc(-c2ccccc2)nc(N/N=C/c2ccc(O)cc2O)n1,"inconclusive: 14.1 µM [inhibitor, single point]"
7,CCOC(=O)/C(=N\Nc1ccccc1Cl)N(C)C1CCCCC1,inactive
8,CCOC(=O)c1ccc(NC(=O)c2cnccn2)cc1,"inconclusive: 11.2 µM [activator, single point]"
9,O=[N+]([O-])c1cccc(/C=N/Nc2ccccn2)c1,"inconclusive: 22.4 µM [inhibitor, single point]"
10,CCCn1c(=O)c2ccccc2n2c(SC(C)C(N)=O)nnc12 (stereo unspecified),"inconclusive: 0.199 µM [inhibitor, full curve, poor fit]"
11,N#Cc1ccsc1NC(=O)CN1CCN(Cc2ccccc2)CC1,inactive
12,O=C(O)c1cccnc1Nc1cccc(C(F)(F)F)c1,"inconclusive: 35.5 µM [activator, single point]"
13,CCN(CC)C(=O)Oc1ccnc2cc(Cl)ccc12,"inconclusive: 12.6 µM [activator, partial curve]"
14,Cc1[nH]nc(-c2ccc(O)cc2O)c1Oc1ccccc1,"inconclusive: 35.5 µM [inhibitor, single point]"
15,O=C(NCc1nc2ccccc2[nH]1)C1=C[C@H](c2csc3ccccc23)C[C@H](OCc2ccc(CO)cc2)O1,inactive
16,CCS(=O)(=O)c1ccc(N=Nc2ccc(O)c3ncccc23)c(OC)c1,active: 7.08 µM
17,CC1=NN(c2nc(-c3ccc(C)cc3)cs2)C(=O)C1N=Nc1cccc(C)c1 (stereo unspecified),active: 7.08 µM
18,C/C(=N/NC(=O)C1COc2ccccc2O1)c1ccc(Br)s1 (stereo unspecified),"inconclusive: 14.1 µM [inhibitor, partial curve, poor fit]"
19,O=C(c1cccc(-c2ccco2)c1)N1CCCC(N2CCN(c3ccc(F)cc3)CC2)C1 (stereo unspecified),"inconclusive: 17.8 µM [activator, partial curve]"
20,CCC(=O)Nc1ccc(C(=O)CSc2nc3ccccc3cc2CC)cc1,"inconclusive: 7.08 µM [activator, partial curve]"
21,COc1ccc2cc(CN(Cc3ccco3)C(c3nnnn3C3CCCCC3)C(C)C)c(=O)[nH]c2c1 (stereo unspecified),inactive
22,C=C1c2cccc(OC)c2O[C@H](C(=O)OCC)[C@@H]1CC(CC)CCCC (stereo partly specified),inactive
23,O=C(COc1ccccc1)Nc1ccccc1N1CCN(c2ccccc2)CC1,"inconclusive: 12.6 µM [inhibitor, single point]"
24,CC(/C=C1\SC(=S)N(CCCC(=O)Nc2ccc(C(=O)O)cc2)C1=O)=C\c1ccccc1,inactive

# A run of entries of the results above, as a working copy:
row,SMILES,Potency
5,CC(=O)c1sc(NC(=O)C2=NN(c3ccccc3)C(=O)CC2)nc1C,"inconclusive: 31.6 µM [inhibitor, single point]"
6,Cc1cc(-c2ccccc2)nc(N/N=C/c2ccc(O)cc2O)n1,"inconclusive: 14.1 µM [inhibitor, single point]"
7,CCOC(=O)/C(=N\Nc1ccccc1Cl)N(C)C1CCCCC1,inactive
8,CCOC(=O)c1ccc(NC(=O)c2cnccn2)cc1,"inconclusive: 11.2 µM [activator, single point]"
9,O=[N+]([O-])c1cccc(/C=N/Nc2ccccn2)c1,"inconclusive: 22.4 µM [inhibitor, single point]"
10,CCCn1c(=O)c2ccccc2n2c(SC(C)C(N)=O)nnc12 (stereo unspecified),"inconclusive: 0.199 µM [inhibitor, full curve, poor fit]"

# Next entries.

row,SMILES,Potency
1,CCc1cccc(NC(=O)c2ccc(Br)o2)c1,"inconclusive: 8.91 µM [activator, partial curve, poor fit]"
2,O=C(N/C(=C/c1ccc(Br)cc1)C(=O)N1CCCCC1)c1ccccc1F,inactive
3,COc1ccc(C(C)=O)cc1COC(=O)c1cc(C)nc2ccccc12,inactive
4,Oc1ccc(-c2n[nH]c(C(F)(F)F)c2-c2ccccc2)c(O)c1,active: 5.62 µM
5,COc1ccc(C(=O)NC2(C(F)(F)F)NC(=O)N(CCCc3ccccc3)C2=O)cc1OC (stereo unspecified),"inconclusive: 10 µM [activator, partial curve]"
6,CC(Oc1ccc(Cl)cc1)C(=O)Nc1sccc1C(N)=O (stereo unspecified),"inconclusive: 11.2 µM [activator, single point]"
7,O=C(Nc1cccc(S(=O)(=O)C(F)F)c1)c1ccc(S(=O)(=O)N2CCOCC2)cc1,"inconclusive: 22.4 µM [activator, single point]"
8,CCCCn1c(SCC(=O)Nc2ccc(NC(C)=O)cc2)nc2ccccc2c1=O,"inconclusive: 0.447 µM [activator, full curve]"
9,Cc1ccc(NC(=O)C2CCN(c3nc(C)cc(C)n3)CC2)cc1,"inconclusive: 35.5 µM [activator, single point]"
10,CS(=O)(=O)N1CCC2(CC1)CN(c1ncccn1)C2,inactive
11,COCCn1cc(C(=O)NCCN(C)C)c2c3ccccc3n(C)c2c1=O,inactive
12,Cc1csc2c(N3CCN(C(=O)Nc4ccc(Cl)c(Cl)c4)CC3)ncnc12,"inconclusive: 8.91 µM [activator, partial curve]"
13,Cc1cc(NC(=O)CN2C(=O)CC(c3ccco3)Sc3ccccc32)no1 (stereo unspecified),"inconclusive: 35.5 µM [inhibitor, partial curve, poor fit]"
14,COc1ccc(Cn2c(=O)[nH]c3cc(C(=O)NCCc4ccc(S(N)(=O)=O)cc4)ccc3c2=O)cc1,"inconclusive: 20 µM [inhibitor, single point]"
15,On1c(-c2ccccc2)nc2ccc(Cl)cc21,"inconclusive: 0.891 µM [activator, full curve]"
16,CCOc1ccc(-c2csc(/C(C#N)=C\c3ccc(O)c([N+](=O)[O-])c3)n2)cc1,inactive
17,CCCn1c(SCC(=O)Nc2ccc(NC(=O)CC)cc2)nc2c1c(=O)n(C)c(=O)n2C,inactive
18,COc1ccc(C2CC(c3ccccc3)=NN2C(=S)Nc2ccccc2)cc1 (stereo unspecified),"inconclusive: 6.31 µM [inhibitor, partial curve]"
19,COc1ccccc1/C=C/C(=O)NCc1ccccn1,"inconclusive: 35.5 µM [inhibitor, single point]"
20,COc1cccc(N2CCN(C(=O)CCCCCNc3nc(=S)[nH]c4ccccc34)CC2)c1,active: 8.91 µM
21,COc1ccccc1-c1cnn2c(NC3CCCC3)cc(C)nc12,active: 10 µM
22,CN(C(=O)C(C)(C)C)c1ccc(OCC(=O)N2CCc3ccccc3C2)cc1,"inconclusive: 35.5 µM [activator, single point]"
23,Cc1cc(NC(=O)CSc2nnnn2C)n(-c2ccccc2)n1,inactive
24,COc1ccc(CC(=O)Nc2nnc(C(C)(C)C)s2)cc1OC,"inconclusive: 35.5 µM [activator, single point]"

row,SMILES,Potency
1,O=C(c1ccc2c(c1)OCO2)N(c1ccccc1)C1C=CS(=O)(=O)C1 (stereo unspecified),"inconclusive: 6.31 µM [inhibitor, single point]"
2,CCOc1ccc(NC(=S)NNC(=S)Nc2cccc(C(F)(F)F)c2)cc1,"inconclusive: 12.6 µM [inhibitor, partial curve]"
3,NS(=O)(=O)c1ccc(NC2=CC(=O)C(=O)c3ccccc32)cc1,active: 10 µM
4,CCCCN=C1NN=C(c2cc3ccccc3o2)CS1,"inconclusive: 20 µM [inhibitor, single point]"
5,CSc1ccccc1NC(=O)CO/N=C(\C)c1cc2ccccc2o1,"inconclusive: 14.1 µM [activator, single point]"
6,COc1ccc(CCNc2cc(-c3ccccc3)nc3ncnn23)cc1,"inconclusive: 11.2 µM [activator, partial curve]"
7,CCc1ccccc1NC(=O)Cn1nnc(-c2cccnc2)n1,"inconclusive: 5.62 µM [inhibitor, single point]"
8,Cc1nc2ccccc2c2c1CC(C(C)(Cl)Br)O2 (stereo unspecified),inactive
9,CNc1c(NS(=O)(=O)c2ccc(OC)c(Cl)c2)c(=O)oc2ccccc12,inactive
10,CCOc1ccc(-c2c(=O)n(O)c3ccccc3[n+]2[O-])cc1,"inconclusive: 12.6 µM [inhibitor, single point]"
11,CC(=O)NC(CSC(CC(=O)c1ccco1)c1ccc(C)cc1)C(=O)O (stereo unspecified),"inconclusive: 35.5 µM [inhibitor, single point]"
12,O=C(NNC(=S)Nc1ccc(Br)cc1)c1ccc(N2CCOCC2)c([N+](=O)[O-])c1,active: 12.6 µM
13,CC1=NN(C(=O)c2ccc(Cn3nc(C)c(Br)c3C)cc2)C(O)(C(F)(F)F)C1 (stereo unspecified),"inconclusive: 17.8 µM [inhibitor, single point]"
14,CCN(CC)C(=O)C1CCCc2c1[nH]c1ccc(Cl)cc21 (stereo unspecified),inactive
15,CC1=NN(C(=O)c2ccc(C)cc2)C(O)(C(F)(F)OC(F)(F)F)C1 (stereo unspecified),active: 6.31 µM
16,CCOC(=O)CSc1ncnc2c1c(-c1ccccc1)cn2-c1ccc(OC)cc1,"inconclusive: 35.5 µM [activator, single point]"
17,CC1(C)C[C@@H]2C[C@@](C)(CN2C(=O)c2cc(COc3cccc(C(F)(F)F)c3)on2)C1,inactive
18,COc1ccc(/C=N/NC(=S)Nc2cc(S(=O)(=O)N3CCOCC3)ccc2N2CCOCC2)cc1O,"inconclusive: 31.6 µM [inhibitor, single point]"
19,COc1cc(-c2noc(CCC(=O)Nc3cccnc3)n2)cc(OC)c1OC,inactive
20,COCCn1c(=O)c(CCc2ccccc2)nc2cnc(Oc3ccccc3)nc21,"inconclusive: 31.6 µM [inhibitor, single point]"
21,Cn1c(=O)c2ccccc2n2c(=S)[nH]nc12,"inconclusive: 17.8 µM [inhibitor, single point]"
22,O=c1oc2ccccc2c2c1C1O[C@](c3ccsc3)(Cc3c1ccc1ccccc31)O2,"inconclusive: 0.355 µM [inhibitor, partial curve]"
23,O=S(=O)(CC(CN1CCCC1)N1CCCC1)c1ccc2ccccc2c1 (stereo unspecified),"inconclusive: 7.08 µM [inhibitor, partial curve, poor fit]"
